Test results as given in PubChem BioAssay AID2685 (National Center for Advancing Translational Sciences (NCATS), 2010).
Several values for one entry are separate records, joined by “and”; a condition that tells them apart may be missing. Equal values may be shown once. The list shows a part of the results. These are further read-outs of the screen, such as a control signal, another cell line or another target. No call is given for them. Most of these compounds were active or inconclusive in the main read-out, so they are no random draw. Potencies come from curve fits of mixed quality, noted in brackets.

Assay: qHTS Assay for Lipid Storage Modulators in Drosophila S3 Cells;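 for cell number change: cells counted by Cell Tracker Red CMTPX staining in the red channel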
Conditions: BODIPY lipid droplet fluorescence, 18-24 h; for cell number change: measured here: cell count max response, cells fed with added oleic acid
Method in brief: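 Drosophila S3 cells got compounds at several concentrations plus oleic acid (400 uM solution). Laser-scanning cytometry with 488 nm excitation read lipid droplets at 500-530 nm and cells at 575-640 nm. Percent activity was relative to 20 uM Triacsin C.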

[1] = measured here: cell number channel AC50, cells fed with added oleic acid
[2] = measured here: lipid fluorescence (Fed channel) AC50, cells fed with added oleic acid

Compound	cell number change	AC50 [1]	AC50 [2]
Cn1cc(Br)c(C(=O)NC2CCCCC2)n1	137%	18.4 µM [rising, single point]	
c1ccc2[nH]c(CN3CCCCC3)nc2c1	36%	9.2 µM [rising, single point]	
COc1ccc(S(=O)(=O)Nc2ccccc2-c2nnn(CC(=O)Nc3ccccc3OC)n2)cc1			1.84 µM [rising, partial curve]
O=C(CN1CCCCC1)c1c[nH]c2ccccc12	-1.75%		9.2 µM [rising, partial curve]
COc1cc(N=c2ssnc2Cl)c(OC)cc1Cl	-50.3% and -25.9%	29.1 µM [falling, single point] and 3.66 µM [falling, full curve, poor fit]	29.1 µM [falling, single point] and 3.66 µM [falling, single point]
CC(C)C1CC(CCNCc2ccc3c(c2)OCO3)(c2ccccc2)CCO1 (configuration not stated)	8.44%		0.651 µM [falling, single point]
Cc1ccc(NC(=O)C2(S(=O)(=O)c3ccc(C)cc3)CC2)cc1	4.94%	0.326 µM [rising, full curve]	1.64 µM [rising, full curve]
COc1ccc(OCc2cc(-c3ccc(Cl)cc3)no2)cc1	-35.7%		
N=c1n(CCN2CCOCC2)c2ccccc2n1Cc1ccccc1Br	-11.3%	0.00517 µM [falling, full curve, poor fit]	0.0058 µM [falling, full curve, poor fit]
Cc1cc(C)c2cc3c(ccn3C3OC[C@H](O)[C@H](O)[C@H]3O)cc2n1 (some centres not stated)	-70.7%	9.2 µM [falling, partial curve]	6.51 µM [falling, single point]
O=C(O)c1cc(NS(=O)(=O)c2cccs2)cc(NS(=O)(=O)c2cccs2)c1	-14.1%		
COc1ccc(NCc2nnc(SCC(=O)Nc3cc(C(F)(F)F)ccc3Cl)o2)cc1	3.32%	0.517 µM [rising, partial curve]	0.58 µM [rising, single point]
Cc1ccccc1Nc1nc(N)nc(COC(=O)c2cccc(S(=O)(=O)N(C)c3ccccc3)c2)n1	8.28%		4.61 µM [rising, full curve]
O=C(O)C1=C(Nc2ccccc2)OCC1=O	7.89%		5.62 µM [rising, single point]
O=C(/C=C/c1ccccc1[N+](=O)[O-])OCC(=O)N1CCCC1	-2.85%		0.291 µM [rising, partial curve, poor fit]
